Patent US20210355166A1 (priority 2018, published 2021)

Assay: general procedure: Fmoc solid-phase peptide synthesis; Fmoc-Rink-amide polystyrene resin; HBTU/DIEA
Conditions: whole synthesis, scale 0.5 mmol

Question: Which results are given for “H-[2,6-dimethyl-L-tyrosyl]-D-Val-L-Val-D-Phe-L-Ser(β-Lac)-NH2”?
Answer: isolated yield (from initial resin loading): 39%; isolated mass: 190 mg
